Test results published in patent publication US12071469B2, “Peptide compounds for suppressing inflammation” (Duke University, priority 2011, dated 2024).
Some results were stated once for a whole list of compounds, not compound by compound.

Test system: primary rat neuronal cortical culture exposed to NMDA
Experiment: Neuroprotection from NMDA mediated cell death in primary neuronal culture (LDH release)
Type: cell-based
Settings: peptide 1 μM
Method: Peptides of 5 amino acids in length were applied to one or more samples of cells in parallel at concentrations ranging from about 0 to about 50 μM, such as 0.3, 3, and 30 μM. The peptides AL-10-1 (SEQ ID NO:18) and VL-17-9 (SEQ ID NO:19), which are longer peptides (12 amino acids each) were used as negative and positive controls, respectively. A series of peptides were screened in primary rat neuronal cortical culture exposed to NMDA using the method described in Aono et al., Neuroscience (2003) 116:437 and Aono et al., Neurobiology of Disease (2002) 11:214, both of which are incorporated by reference in their entirety (see Table 2). Neuroprotection from NMDA mediated cell death in primary neuronal culture was expressed as percentage decrease in LDH, 24 hours after exposure to NMDA compared to vehicle treated cultures (Table 2). LDH release is indicative of neuronal death after NMDA exposure. The peptide VR-55 (SEQ ID NO:4) reduced NMDA mediated excitotoxic cell death by approximately 19% at a concentration of 1 μM. […] The positive control peptide VL-17-9 reduced LDH release by 31%.
Dose response of the neuroprotection from NMDA excitotoxicity in primary neuronal culture was determined for ApoE mimetic peptide VR-55 (SEQ ID NO: 4). […] “0” indicates less than 5% suppression; “+” indicates 5-10% suppression; “++” indicates 11-20% suppression; and “+++” indicates greater than 20% suppression. In addition to VL-17-9, several other candidates had greater than 20% suppression, including VR-55, VL-5-1, VL-5-2 and VR-52.

Substance	suppression of LDH release, cumulative data
Ac-VARKL-NH2 [VL-5-1] (N-acetyl; C-amide; ApoE mimetic peptide sequence)	greater than 20%
Ac-VARKL-NH2 [VL-5-2] (N-acetyl, C-amide; ApoE mimetic peptide sequence)	greater than 20%
Ac-VSRKR-NH2 (N-acetyl; C-amide; ApoE mimetic peptide sequence) [VR-52]	greater than 20%
